From article PMC6853375 come the findings set out here.

The chains behind the UniProt entries cited, without tags or fusion partners.
UniProt P06748: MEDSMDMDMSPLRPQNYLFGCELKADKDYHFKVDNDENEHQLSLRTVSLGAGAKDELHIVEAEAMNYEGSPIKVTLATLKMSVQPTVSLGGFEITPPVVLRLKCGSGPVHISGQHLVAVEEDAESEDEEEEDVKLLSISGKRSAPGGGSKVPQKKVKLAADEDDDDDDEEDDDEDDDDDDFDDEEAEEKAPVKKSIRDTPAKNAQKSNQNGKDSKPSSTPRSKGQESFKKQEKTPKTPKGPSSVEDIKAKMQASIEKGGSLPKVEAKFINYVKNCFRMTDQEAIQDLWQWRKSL
UniProt Q92769: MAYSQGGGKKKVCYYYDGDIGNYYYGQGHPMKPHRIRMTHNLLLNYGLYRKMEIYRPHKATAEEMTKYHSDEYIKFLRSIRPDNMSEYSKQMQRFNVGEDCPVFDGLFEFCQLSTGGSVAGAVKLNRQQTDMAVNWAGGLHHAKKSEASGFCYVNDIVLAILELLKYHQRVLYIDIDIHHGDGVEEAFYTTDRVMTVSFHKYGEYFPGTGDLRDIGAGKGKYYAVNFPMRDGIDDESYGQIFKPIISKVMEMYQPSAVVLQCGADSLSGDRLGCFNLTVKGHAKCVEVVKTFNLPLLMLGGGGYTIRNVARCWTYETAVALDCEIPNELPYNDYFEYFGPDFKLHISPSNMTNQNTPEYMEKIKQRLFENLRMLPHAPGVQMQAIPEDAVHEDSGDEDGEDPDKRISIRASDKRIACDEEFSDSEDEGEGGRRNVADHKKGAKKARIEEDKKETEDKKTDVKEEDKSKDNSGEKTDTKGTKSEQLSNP
UniProt Q09028: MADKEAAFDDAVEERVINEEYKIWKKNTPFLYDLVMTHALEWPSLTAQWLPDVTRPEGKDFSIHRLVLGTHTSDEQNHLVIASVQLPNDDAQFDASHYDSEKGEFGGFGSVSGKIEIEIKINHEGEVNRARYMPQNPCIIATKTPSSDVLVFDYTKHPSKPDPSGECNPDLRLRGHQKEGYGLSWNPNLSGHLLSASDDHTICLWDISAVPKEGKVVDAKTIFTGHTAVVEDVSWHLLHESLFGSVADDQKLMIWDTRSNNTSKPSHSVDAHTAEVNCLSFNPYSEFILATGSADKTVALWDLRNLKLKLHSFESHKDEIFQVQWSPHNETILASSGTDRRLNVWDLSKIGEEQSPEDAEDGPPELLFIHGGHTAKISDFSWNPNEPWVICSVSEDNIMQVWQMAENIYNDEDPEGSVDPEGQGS
UniProt P28370: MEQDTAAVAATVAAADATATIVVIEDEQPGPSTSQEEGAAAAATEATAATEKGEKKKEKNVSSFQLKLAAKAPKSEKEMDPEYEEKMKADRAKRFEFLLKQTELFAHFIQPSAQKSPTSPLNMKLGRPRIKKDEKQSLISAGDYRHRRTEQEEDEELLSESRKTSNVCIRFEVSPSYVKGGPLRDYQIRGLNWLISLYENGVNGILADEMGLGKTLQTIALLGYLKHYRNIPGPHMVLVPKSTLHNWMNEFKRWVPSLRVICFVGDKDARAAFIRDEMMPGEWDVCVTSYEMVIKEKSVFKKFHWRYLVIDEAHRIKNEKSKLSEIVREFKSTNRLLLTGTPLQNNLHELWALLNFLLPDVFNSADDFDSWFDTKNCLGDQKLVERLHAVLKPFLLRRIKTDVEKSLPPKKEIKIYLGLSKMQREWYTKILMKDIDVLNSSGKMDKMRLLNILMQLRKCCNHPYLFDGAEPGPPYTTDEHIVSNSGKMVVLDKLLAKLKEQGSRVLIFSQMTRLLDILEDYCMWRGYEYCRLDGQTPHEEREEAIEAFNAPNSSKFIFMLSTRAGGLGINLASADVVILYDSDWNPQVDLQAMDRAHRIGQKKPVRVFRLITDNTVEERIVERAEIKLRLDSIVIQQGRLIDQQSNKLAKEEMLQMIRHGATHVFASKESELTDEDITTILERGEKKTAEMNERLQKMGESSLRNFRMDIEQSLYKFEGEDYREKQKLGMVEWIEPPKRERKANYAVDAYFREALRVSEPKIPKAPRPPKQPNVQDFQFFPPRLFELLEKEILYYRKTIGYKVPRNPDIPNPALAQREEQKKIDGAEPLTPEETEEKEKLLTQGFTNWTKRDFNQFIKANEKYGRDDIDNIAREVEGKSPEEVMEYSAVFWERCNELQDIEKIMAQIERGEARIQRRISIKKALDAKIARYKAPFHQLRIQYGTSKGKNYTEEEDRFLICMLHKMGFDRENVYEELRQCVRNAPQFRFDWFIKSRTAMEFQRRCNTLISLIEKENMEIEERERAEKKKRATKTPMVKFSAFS
UniProt P51531: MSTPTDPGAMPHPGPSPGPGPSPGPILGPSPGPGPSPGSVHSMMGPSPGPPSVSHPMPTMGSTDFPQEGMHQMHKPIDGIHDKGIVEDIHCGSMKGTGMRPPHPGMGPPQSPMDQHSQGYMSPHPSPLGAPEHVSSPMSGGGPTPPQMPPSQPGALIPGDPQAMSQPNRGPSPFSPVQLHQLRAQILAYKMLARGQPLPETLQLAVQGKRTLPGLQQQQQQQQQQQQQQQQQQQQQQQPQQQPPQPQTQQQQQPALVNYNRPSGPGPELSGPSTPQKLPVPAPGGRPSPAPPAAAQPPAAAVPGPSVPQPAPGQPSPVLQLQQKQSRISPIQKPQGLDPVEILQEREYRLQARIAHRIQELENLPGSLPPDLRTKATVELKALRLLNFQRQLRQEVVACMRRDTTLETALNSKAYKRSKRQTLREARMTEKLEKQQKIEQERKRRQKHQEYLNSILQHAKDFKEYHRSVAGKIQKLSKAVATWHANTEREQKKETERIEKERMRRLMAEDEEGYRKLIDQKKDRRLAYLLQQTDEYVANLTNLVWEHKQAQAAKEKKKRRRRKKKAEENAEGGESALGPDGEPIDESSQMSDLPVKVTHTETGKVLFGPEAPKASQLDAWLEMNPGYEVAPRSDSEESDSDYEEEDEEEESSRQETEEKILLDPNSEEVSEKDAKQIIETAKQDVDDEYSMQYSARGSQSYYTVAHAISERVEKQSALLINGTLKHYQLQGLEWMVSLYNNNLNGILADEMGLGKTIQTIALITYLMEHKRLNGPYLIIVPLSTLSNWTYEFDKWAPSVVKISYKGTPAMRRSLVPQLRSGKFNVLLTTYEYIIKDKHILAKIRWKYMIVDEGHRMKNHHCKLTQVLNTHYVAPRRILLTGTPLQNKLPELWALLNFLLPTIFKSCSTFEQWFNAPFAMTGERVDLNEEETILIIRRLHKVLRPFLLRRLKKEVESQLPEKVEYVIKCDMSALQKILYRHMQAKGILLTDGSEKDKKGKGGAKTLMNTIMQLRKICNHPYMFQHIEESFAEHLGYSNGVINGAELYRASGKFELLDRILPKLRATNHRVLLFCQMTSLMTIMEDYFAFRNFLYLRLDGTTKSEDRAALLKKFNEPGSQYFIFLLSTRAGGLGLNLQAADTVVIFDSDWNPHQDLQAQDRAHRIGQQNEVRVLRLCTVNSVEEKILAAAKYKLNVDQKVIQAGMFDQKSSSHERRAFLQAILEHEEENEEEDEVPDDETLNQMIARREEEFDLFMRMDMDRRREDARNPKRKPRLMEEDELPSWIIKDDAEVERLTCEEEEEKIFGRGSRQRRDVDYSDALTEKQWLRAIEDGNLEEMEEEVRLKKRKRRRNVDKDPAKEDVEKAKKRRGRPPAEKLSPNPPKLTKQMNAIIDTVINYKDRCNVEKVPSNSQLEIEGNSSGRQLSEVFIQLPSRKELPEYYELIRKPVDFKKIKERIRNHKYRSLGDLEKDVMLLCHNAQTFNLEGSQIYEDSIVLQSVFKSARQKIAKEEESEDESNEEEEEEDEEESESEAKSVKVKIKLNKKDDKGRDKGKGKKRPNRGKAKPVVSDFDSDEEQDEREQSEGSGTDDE
UniProt O60264: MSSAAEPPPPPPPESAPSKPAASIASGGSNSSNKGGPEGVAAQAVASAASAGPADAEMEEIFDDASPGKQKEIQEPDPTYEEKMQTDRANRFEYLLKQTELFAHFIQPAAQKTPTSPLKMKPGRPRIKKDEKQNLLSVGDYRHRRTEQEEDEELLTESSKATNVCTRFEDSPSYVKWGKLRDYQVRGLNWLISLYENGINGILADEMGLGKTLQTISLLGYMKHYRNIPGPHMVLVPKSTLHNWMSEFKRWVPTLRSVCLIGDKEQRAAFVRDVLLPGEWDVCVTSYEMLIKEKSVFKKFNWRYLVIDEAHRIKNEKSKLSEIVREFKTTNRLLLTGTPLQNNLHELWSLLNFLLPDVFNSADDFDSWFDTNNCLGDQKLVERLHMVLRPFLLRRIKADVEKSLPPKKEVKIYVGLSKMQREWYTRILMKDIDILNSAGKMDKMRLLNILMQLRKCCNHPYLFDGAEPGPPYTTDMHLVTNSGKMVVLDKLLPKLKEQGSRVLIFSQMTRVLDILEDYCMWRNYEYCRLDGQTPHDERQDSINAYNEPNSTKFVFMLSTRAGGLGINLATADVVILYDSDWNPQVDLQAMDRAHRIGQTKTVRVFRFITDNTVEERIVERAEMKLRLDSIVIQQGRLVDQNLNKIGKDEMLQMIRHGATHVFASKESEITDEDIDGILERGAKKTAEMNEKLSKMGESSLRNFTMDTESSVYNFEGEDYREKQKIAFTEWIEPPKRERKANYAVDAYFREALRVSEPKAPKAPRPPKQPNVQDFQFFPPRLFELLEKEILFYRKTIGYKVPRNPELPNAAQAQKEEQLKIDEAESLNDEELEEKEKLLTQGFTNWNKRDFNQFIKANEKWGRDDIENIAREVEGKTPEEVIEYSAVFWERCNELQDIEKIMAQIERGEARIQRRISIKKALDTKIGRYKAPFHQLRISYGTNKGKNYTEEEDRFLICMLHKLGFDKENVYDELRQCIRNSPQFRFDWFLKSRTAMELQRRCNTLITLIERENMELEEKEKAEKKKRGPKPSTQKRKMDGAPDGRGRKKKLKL
UniProt Q96GM5: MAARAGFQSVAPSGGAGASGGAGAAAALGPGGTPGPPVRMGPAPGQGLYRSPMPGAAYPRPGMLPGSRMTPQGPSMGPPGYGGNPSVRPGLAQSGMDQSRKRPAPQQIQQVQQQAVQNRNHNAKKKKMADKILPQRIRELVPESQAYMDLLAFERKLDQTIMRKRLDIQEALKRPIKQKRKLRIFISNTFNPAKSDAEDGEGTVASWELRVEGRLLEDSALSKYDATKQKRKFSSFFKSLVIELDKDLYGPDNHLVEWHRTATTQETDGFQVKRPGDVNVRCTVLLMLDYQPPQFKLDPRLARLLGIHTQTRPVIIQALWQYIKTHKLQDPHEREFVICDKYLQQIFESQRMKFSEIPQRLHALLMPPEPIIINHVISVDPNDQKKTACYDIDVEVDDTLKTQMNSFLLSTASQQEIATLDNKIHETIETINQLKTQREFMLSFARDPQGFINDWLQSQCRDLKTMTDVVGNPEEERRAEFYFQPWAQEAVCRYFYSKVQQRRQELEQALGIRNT
UniProt Q92925: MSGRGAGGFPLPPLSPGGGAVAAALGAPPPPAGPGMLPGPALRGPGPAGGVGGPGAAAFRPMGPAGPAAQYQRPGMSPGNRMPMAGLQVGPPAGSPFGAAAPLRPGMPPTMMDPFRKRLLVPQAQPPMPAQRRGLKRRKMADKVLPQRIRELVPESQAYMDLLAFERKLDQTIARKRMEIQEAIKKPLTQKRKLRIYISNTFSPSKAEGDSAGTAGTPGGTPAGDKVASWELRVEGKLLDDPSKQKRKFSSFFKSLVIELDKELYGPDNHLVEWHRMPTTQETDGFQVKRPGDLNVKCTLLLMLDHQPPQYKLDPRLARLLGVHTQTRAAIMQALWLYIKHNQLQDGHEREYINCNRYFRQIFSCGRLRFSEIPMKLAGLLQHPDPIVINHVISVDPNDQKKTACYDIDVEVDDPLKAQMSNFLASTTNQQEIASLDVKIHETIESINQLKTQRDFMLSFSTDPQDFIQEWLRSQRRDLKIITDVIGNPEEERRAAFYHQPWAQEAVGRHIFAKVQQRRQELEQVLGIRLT
UniProt Q969G3: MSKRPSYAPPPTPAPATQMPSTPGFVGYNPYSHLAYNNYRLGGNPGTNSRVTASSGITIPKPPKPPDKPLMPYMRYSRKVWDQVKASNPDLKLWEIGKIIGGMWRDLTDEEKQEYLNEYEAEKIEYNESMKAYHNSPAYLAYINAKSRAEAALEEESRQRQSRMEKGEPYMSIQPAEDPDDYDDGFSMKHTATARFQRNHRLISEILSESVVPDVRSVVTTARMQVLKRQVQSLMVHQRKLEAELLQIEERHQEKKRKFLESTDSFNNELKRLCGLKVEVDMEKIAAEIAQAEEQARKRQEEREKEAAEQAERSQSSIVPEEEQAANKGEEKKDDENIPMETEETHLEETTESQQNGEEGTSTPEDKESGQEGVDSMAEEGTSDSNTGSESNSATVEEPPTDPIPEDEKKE

Assay [1] concerns the target Flag-HA-NPM (UniProt P06748). The experiment in a line: affinity purification with mass spectrometry; Flag-HA sequential immunoaffinity purification (TAP-Tag) from 20 mg nuclear lysate of K562 MOCK, NPM or NPM-MLF1 cells; elution with Flag or HA peptides; LC-MS/MS.
Assay [2] concerns the target Flag-HA-NPM (UniProt P06748). The experiment in a line: affinity purification with mass spectrometry; Flag immunoaffinity purification of FH-NPM or FH-NPM-MLF1 from K562 nuclear extracts, then size exclusion chromatography (Superose 6); fractions from 2000 kDa to 600 kDa regrouped in three peaks; LC-MS/MS.

Results are given in words; binding and its absence hold for the method and conditions named. Binding seen in cells or lysates may run through a third protein. A yes stands for co-enrichment or nearness to the bait. Other partners may have been found.

As for ACTL6A (from UniProt O96019 1-429), in the assay with Flag-HA-NPM [1], the binding result was “binds”.

As for “BAF180 (PBRM1) (from UniProt Q86U86 1-1689)”, the binding entry in the assay with Flag-HA-NPM [1] and with Flag-HA-NPM [2] was “binds” each time.

BRD7 (from UniProt Q9NPI1 1-651): the binding entry with Flag-HA-NPM [2] is “binds”.

Regarding CHD3 (from UniProt Q12873 1-2000), the binding entry with Flag-HA-NPM [2] is on record as “binds”.

Turning to CHD4 (from UniProt Q14839 1-1912), the binding entry in the assay with Flag-HA-NPM [2] was “binds”.

Regarding DDX21 (from UniProt Q9NR30 1-783), in the assay with Flag-HA-NPM [1], the binding entry is on record as “binds”.

Regarding HDAC1 (from UniProt Q13547 1-482), the binding entry with Flag-HA-NPM [1] and with Flag-HA-NPM [2] was “binds” throughout.

For the molecule HDAC2 (from UniProt Q92769 1-488), the binding result with Flag-HA-NPM [2] is listed as “binds”.

For RBBP4 (from UniProt Q09028 1-425), the binding result with Flag-HA-NPM [2] is on record as “binds”.

As to “SMARCA1 (SNF2L) (from UniProt P28370 1-1042)”, the binding result with Flag-HA-NPM [1] and in the assay with Flag-HA-NPM [2] was “binds” each time.

Regarding “SMARCA2 (BRM) (from UniProt P51531 1-1590)”, in the assay with Flag-HA-NPM [2], the binding result is “binds”.

With “SMARCA4 (BRG1) (from UniProt P51532 1-1647)”, the binding entry with Flag-HA-NPM [1] and with Flag-HA-NPM [2] was “binds” throughout.

For “SMARCA5 (SNF2H) (from UniProt O60264 1-1052)”, the binding result in the assay with Flag-HA-NPM [1] and with Flag-HA-NPM [2] was “binds” throughout.

Consider “SMARCB1 (SNF5) (from UniProt Q12824 1-385)”, for which the binding entry with Flag-HA-NPM [1] and in the assay with Flag-HA-NPM [2] was “binds” each time.

As for “SMARCC1 (BAF155) (from UniProt Q92922 1-1105)”, the binding result with Flag-HA-NPM [1] was “binds”.

Turning to “SMARCC2 (BAF170) (from UniProt Q8TAQ2 1-1214)”, the binding entry with Flag-HA-NPM [1] and with Flag-HA-NPM [2] was “binds” each time.

Turning to “SMARCD1 (BAF60A) (from UniProt Q96GM5 1-515)”, the binding result with Flag-HA-NPM [1] and with Flag-HA-NPM [2] was “binds” throughout.

With “SMARCD2 (BAF60B) (from UniProt Q92925 1-531)”, the binding result with Flag-HA-NPM [1] and with Flag-HA-NPM [2] was “binds” in each case.

With SMARCD3 (from UniProt Q6STE5 1-483), the binding result in the assay with Flag-HA-NPM [2] was “binds”.

On to “SMARCE1 (BAF57) (from UniProt Q969G3 1-411)”, for which the binding entry with Flag-HA-NPM [2] is reported as “binds”.

B1: WSTF (BAZ1B) (protein, UniProt Q9UIG0 1-1483)
chain: MAPLLGRKPFPLVKPLPGEEPLFTIPHTQEAFRTREEYEARLERYSERIWTCKSTGSSQLTHKEAWEEEQEVAELLKEEFPAWYEKLVLEMVHHNTASLEKLVDTAWLEIMTKYAVGEECDFEVGKEKMLKVKIVKIHPLEKVDEEATEKKSDGACDSPSSDKENSSQIAQDHQKKETVVKEDEGRRESINDRARRSPRKLPTSLKKGERKWAPPKFLPHKYDVKLQNEDKIISNVPADSLIRTERPPNKEIVRYFIRHNALRAGTGENAPWVVEDELVKKYSLPSKFSDFLLDPYKYMTLNPSTKRKNTGSPDRKPSKKSKTDNSSLSSPLNPKLWCHVHLKKSLSGSPLKVKNSKNSKSPEEHLEEMMKMMSPNKLHTNFHIPKKGPPAKKPGKHSDKPLKAKGRSKGILNGQKSTGNSKSPKKGLKTPKTKMKQMTLLDMAKGTQKMTRAPRNSGGTPRTSSKPHKHLPPAALHLIAYYKENKDREDKRSALSCVISKTARLLSSEDRARLPEELRSLVQKRYELLEHKKRWASMSEEQRKEYLKKKREELKKKLKEKAKERREKEMLERLEKQKRYEDQELTGKNLPAFRLVDTPEGLPNTLFGDVAMVVEFLSCYSGLLLPDAQYPITAVSLMEALSADKGGFLYLNRVLVILLQTLLQDEIAEDYGELGMKLSEIPLTLHSVSELVRLCLRRSDVQEESEGSDTDDNKDSAAFEDNEVQDEFLEKLETSEFFELTSEEKLQILTALCHRILMTYSVQDHMETRQQMSAELWKERLAVLKEENDKKRAEKQKRKEMEAKNKENGKVENGLGKTDRKKEIVKFEPQVDTEAEDMISAVKSRRLLAIQAKKEREIQEREMKVKLERQAEEERIRKHKAAAEKAFQEGIAKAKLVMRRTPIGTDRNHNRYWLFSDEVPGLFIEKGWVHDSIDYRFNHHCKDHTVSGDEDYCPRSKKANLGKNASMNTQHGTATEVAVETTTPKQGQNLWFLCDSQKELDELLNCLHPQGIRESQLKERLEKRYQDIIHSIHLARKPNLGLKSCDGNQELLNFLRSDLIEVATRLQKGGLGYVEETSEFEARVISLEKLKDFGECVIALQASVIKKFLQGFMAPKQKRRKLQSEDSAKTEEVDEEKKMVEEAKVASALEKWKTAIREAQTFSRMHVLLGMLDACIKWDMSAENARCKVCRKKGEDDKLILCDECNKAFHLFCLRPALYEVPDGEWQCPACQPATARRNSRGRNYTEESASEDSEDDESDEEEEEEEEEEEEEDYEVAGLRLRPRKTIRGKHSVIPPAARSGRRPGKKPHSTRRSQPKAPPVDDAEVDELVLQTKRSSRRQSLELQKCEEILHKIVKYRFSWPFREPVTRDEAEDYYDVITHPMDFQTVQNKCSCGSYRSVQEFLTDMKQVFTNAEVYNCRGSHVLSCMVKTEQCLVALLHKHLPGHPYVRRKRKKFPDRLAEDEGDSEPEAVGQSRGRRQKK
For the molecule B1, the binding entry with Flag-HA-NPM [1] and with Flag-HA-NPM [2] was “binds” in each case.

B2: DEK (protein, UniProt P35659 1-375)
chain: MSASAPAAEGEGTPTQPASEKEPEMPGPREESEEEEDEDDEEEEEEEKEKSLIVEGKREKKKVERLTMQVSSLQREPFTIAQGKGQKLCEIERIHFFLSKKKTDELRNLHKLLYNRPGTVSSLKKNVGQFSGFPFEKGSVQYKKKEEMLKKFRNAMLKSICEVLDLERSGVNSELVKRILNFLMHPKPSGKPLPKSKKTCSKGSKKERNSSGMARKAKRTKCPEILSDESSSDEDEKKNKEESSDDEDKESEEEPPKKTAKREKPKQKATSKSKKSVKSANVKKADSSTTKKNQNSSKKESESEDSSDDEPLIKKLKKPPTDEELKETIKKLLASANLEEVTMKQICKKVYENYPTYDLTERKDFIKTTVKELIS
Turning to B2, the binding result with Flag-HA-NPM [1] is reported as “binds”.

B3: MYBBP1A (protein, UniProt Q9BQG0 1-1328)
chain: MESRDPAQPMSPGEATQSGARPADRYGLLKHSREFLDFFWDIAKPEQETRLAATEKLLEYLRGRPKGSEMKYALKRLITGLGVGRETARPCYSLALAQLLQSFEDLPLCSILQQIQEKYDLHQVKKAMLRPALFANLFGVLALFQSGRLVKDQEALMKSVKLLQALAQYQNHLQEQPRKALVDILSEVSKATLQEILPEVLKADLNIILSSPEQLELFLLAQQKVPSKLKKLVGSVNLFSDENVPRLVNVLKMAASSVKKDRKLPAIALDLLRLALKEDKFPRFWKEVVEQGLLKMQFWPASYLCFRLLGAALPLLTKEQLHLVMQGDVIRHYGEHVCTAKLPKQFKFAPEMDDYVGTFLEGCQDDPERQLAVLVAFSSVTNQGLPVTPTFWRVVRFLSPPALQGYVAWLRAMFLQPDLDSLVDFSTNNQKKAQDSSLHMPERAVFRLRKWIIFRLVSIVDSLHLEMEEALTEQVARFCLFHSFFVTKKPTSQIPETKHPFSFPLENQAREAVSSAFFSLLQTLSTQFKQAPGQTQGGQPWTYHLVQFADLLLNHSHNVTTVTPFTAQQRQAWDRMLQTLKELEAHSAEARAAAFQHLLLLVGIHLLKSPAESCDLLGDIQTCIRKSLGEKPRRSRTKTIDPQEPPWVEVLVEILLALLAQPSHLMRQVARSVFGHICSHLTPRALQLILDVLNPETSEDENDRVVVTDDSDERRLKGAEDKSEEGEDNRSSESEEESEGEESEEEERDGDVDQGFREQLMTVLQAGKALGGEDSENEEELGDEAMMALDQSLASLFAEQKLRIQARRDEKNKLQKEKALRRDFQIRVLDLVEVLVTKQPENALVLELLEPLLSIIRRSLRSSSSKQEQDLLHKTARIFTHHLCRARRYCHDLGERAGALHAQVERLVQQAGRQPDSPTALYHFNASLYLLRVLKGNTAEGCVHETQEKQKAGTDPSHMPTGPQAASCLDLNLVTRVYSTALSSFLTKRNSPLTVPMFLSLFSRHPVLCQSLLPILVQHITGPVRPRHQACLLLQKTLSMREVRSCFEDPEWKQLMGQVLAKVTENLRVLGEAQTKAQHQQALSSLELLNVLFRTCKHEKLTLDLTVLLGVLQGQQQSLQQGAHSTGSSRLHDLYWQAMKTLGVQRPKLEKKDAKEIPSATQSPISKKRKKKGFLPETKKRKKRKSEDGTPAEDGTPAATGGSQPPSMGRKKRNRTKAKVPAQANGTPTTKSPAPGAPTRSPSTPAKSPKLQKKNQKPSQVNGAPGSPTEPAGQKQHQKALPKKGVLGKSPLSALARKKARLSLVIRSPSLLQSGAKKKAQVRKAGKP
Regarding B3, the binding result in the assay with Flag-HA-NPM [1] was “binds”.
